Assay results as given in the supplement of paper PMC12067093, “Discovery and optimisation of a covalent ligand for TRIM25 and its application to targeted protein ubiquitination” (Chemical Science, 2025).
The other results are listed elsewhere or left out.

Amino acid sequences for entries named in this document (tags omitted). A change or cut given only in a name is not applied to a line headed by its entry.
UniProt Q9BW27: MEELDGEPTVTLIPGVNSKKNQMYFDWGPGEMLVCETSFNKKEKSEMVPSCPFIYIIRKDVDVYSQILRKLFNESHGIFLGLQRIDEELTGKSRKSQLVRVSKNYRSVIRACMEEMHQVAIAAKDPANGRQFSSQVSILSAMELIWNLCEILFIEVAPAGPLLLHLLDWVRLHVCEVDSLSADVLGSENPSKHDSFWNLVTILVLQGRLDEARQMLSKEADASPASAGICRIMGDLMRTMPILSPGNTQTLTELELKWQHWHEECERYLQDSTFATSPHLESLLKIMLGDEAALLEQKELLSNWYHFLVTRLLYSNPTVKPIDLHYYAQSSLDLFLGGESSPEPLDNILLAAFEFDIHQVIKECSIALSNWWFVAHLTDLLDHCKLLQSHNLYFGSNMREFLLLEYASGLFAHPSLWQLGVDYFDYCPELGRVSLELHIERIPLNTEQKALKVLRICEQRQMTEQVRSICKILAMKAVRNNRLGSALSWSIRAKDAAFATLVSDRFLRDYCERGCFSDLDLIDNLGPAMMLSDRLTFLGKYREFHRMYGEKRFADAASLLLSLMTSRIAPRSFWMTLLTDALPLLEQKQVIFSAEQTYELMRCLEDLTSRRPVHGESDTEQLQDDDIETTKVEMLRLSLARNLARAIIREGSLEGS
UniProt Q8WUM0: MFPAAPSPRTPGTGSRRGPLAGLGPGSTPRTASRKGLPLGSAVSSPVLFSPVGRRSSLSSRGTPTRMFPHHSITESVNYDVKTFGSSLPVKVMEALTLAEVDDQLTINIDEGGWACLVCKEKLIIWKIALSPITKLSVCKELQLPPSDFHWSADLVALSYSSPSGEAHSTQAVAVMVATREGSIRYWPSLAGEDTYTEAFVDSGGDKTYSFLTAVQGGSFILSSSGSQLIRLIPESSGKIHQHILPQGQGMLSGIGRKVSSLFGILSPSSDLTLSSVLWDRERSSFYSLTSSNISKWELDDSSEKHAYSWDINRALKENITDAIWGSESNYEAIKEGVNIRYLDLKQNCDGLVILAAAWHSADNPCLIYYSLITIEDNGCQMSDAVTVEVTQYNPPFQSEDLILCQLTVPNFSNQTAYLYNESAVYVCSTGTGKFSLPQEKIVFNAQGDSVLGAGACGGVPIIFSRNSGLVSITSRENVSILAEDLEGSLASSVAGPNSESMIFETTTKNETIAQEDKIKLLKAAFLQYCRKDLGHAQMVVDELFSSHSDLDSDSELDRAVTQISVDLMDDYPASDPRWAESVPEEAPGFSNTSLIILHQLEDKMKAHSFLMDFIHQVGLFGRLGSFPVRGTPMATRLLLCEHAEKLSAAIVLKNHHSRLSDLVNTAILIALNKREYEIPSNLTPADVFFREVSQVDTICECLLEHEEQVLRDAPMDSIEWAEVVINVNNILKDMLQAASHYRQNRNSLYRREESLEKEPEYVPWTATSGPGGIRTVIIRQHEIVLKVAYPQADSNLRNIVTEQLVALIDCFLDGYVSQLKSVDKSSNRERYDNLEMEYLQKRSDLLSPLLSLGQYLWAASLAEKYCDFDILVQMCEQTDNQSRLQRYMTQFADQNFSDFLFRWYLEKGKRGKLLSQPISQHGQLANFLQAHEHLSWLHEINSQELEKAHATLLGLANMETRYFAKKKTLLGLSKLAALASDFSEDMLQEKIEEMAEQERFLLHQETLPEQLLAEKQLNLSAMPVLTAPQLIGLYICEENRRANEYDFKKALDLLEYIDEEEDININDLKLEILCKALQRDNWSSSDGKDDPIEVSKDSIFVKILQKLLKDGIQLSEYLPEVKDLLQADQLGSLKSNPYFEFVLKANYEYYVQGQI
UniProt O75694: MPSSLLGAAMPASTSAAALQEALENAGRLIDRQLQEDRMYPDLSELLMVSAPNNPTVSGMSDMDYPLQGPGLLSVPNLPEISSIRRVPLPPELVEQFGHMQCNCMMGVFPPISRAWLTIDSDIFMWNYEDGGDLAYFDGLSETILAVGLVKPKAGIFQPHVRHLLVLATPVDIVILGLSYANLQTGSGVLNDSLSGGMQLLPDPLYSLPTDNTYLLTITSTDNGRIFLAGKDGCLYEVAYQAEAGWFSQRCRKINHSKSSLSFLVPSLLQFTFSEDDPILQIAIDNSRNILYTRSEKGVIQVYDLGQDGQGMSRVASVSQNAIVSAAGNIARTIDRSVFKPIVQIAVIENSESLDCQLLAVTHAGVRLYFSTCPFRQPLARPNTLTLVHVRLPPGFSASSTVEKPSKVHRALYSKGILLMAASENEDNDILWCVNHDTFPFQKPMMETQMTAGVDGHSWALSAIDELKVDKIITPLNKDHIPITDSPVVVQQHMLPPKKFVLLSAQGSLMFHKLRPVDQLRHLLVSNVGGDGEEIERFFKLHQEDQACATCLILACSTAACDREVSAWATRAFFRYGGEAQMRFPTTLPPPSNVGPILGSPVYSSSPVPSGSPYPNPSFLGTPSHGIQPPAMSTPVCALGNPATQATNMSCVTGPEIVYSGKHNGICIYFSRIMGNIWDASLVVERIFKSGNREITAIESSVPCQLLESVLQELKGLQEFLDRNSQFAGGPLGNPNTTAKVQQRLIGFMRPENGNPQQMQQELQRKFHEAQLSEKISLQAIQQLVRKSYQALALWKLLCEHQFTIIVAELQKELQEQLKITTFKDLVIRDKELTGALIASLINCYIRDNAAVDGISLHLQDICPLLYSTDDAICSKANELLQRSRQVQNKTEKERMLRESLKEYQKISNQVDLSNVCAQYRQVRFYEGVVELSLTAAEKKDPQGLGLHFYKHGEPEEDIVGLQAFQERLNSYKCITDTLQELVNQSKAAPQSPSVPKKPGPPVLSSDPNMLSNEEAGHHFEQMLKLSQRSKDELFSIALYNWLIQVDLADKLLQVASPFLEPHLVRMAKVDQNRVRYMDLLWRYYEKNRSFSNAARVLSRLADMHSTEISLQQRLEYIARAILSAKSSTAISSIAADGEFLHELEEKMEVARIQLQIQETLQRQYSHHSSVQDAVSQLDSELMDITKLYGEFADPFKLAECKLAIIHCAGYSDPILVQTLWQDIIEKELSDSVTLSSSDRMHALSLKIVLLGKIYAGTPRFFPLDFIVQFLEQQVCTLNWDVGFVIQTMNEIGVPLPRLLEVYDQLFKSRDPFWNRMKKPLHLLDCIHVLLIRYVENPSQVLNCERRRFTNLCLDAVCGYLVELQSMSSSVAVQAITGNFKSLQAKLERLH
UniProt O15381: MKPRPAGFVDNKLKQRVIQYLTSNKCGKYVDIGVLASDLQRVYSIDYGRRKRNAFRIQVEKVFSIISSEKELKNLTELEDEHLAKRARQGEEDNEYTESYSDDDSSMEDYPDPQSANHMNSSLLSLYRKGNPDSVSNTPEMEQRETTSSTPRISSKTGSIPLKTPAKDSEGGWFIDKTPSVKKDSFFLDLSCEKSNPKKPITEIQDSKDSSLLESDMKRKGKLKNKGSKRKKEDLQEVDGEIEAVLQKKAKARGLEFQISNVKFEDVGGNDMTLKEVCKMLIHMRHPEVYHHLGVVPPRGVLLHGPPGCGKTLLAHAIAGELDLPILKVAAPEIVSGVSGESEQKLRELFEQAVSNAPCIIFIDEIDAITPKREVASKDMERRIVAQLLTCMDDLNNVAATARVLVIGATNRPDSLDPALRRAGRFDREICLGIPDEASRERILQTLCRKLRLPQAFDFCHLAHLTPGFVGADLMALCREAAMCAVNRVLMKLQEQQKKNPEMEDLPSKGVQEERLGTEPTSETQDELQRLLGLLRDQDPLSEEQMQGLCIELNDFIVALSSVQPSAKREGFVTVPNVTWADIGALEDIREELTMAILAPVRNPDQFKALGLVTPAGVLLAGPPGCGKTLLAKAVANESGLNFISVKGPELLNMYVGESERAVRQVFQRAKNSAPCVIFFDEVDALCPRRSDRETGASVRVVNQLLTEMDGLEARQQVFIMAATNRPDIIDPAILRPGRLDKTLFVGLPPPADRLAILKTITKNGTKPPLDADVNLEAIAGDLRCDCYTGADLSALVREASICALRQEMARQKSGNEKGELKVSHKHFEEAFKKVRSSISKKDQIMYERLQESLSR
UniProt P49790, whole entry, looked up: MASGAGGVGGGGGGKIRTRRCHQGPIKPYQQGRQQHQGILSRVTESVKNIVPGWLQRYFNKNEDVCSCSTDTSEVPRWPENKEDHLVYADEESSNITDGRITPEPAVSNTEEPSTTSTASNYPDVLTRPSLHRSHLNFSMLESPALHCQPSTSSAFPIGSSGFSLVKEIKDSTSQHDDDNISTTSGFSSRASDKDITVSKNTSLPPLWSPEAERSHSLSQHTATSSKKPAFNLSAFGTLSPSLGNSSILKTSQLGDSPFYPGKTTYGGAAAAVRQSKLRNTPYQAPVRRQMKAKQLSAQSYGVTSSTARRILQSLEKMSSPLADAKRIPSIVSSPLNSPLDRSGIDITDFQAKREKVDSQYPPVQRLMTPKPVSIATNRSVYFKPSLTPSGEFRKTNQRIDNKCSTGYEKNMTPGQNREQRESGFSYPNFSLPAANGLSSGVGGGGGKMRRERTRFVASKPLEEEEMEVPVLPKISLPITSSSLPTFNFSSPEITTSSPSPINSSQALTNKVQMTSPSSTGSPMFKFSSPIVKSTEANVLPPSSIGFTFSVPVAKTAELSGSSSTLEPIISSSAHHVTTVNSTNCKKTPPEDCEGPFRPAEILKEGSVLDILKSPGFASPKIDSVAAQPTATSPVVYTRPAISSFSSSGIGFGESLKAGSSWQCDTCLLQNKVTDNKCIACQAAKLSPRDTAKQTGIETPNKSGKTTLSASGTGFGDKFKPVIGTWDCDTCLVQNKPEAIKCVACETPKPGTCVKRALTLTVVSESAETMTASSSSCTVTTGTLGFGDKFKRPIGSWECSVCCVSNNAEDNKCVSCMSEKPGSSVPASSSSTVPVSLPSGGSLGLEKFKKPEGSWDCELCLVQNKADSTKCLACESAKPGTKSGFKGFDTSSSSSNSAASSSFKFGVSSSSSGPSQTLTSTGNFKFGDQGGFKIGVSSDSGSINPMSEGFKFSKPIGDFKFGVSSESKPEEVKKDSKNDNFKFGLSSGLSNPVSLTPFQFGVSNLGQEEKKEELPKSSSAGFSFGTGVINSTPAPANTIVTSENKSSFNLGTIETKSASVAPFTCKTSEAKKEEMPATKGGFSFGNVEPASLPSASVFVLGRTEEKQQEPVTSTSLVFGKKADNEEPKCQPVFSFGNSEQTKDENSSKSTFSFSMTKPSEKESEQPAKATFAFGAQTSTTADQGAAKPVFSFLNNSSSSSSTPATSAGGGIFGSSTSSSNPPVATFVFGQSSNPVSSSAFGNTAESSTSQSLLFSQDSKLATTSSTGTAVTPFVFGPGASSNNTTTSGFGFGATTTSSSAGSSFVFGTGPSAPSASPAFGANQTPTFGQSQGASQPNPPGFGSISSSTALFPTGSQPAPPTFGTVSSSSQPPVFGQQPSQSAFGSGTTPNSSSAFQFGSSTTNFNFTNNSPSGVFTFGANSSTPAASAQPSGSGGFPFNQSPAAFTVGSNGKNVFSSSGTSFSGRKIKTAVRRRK
UniProt O15294: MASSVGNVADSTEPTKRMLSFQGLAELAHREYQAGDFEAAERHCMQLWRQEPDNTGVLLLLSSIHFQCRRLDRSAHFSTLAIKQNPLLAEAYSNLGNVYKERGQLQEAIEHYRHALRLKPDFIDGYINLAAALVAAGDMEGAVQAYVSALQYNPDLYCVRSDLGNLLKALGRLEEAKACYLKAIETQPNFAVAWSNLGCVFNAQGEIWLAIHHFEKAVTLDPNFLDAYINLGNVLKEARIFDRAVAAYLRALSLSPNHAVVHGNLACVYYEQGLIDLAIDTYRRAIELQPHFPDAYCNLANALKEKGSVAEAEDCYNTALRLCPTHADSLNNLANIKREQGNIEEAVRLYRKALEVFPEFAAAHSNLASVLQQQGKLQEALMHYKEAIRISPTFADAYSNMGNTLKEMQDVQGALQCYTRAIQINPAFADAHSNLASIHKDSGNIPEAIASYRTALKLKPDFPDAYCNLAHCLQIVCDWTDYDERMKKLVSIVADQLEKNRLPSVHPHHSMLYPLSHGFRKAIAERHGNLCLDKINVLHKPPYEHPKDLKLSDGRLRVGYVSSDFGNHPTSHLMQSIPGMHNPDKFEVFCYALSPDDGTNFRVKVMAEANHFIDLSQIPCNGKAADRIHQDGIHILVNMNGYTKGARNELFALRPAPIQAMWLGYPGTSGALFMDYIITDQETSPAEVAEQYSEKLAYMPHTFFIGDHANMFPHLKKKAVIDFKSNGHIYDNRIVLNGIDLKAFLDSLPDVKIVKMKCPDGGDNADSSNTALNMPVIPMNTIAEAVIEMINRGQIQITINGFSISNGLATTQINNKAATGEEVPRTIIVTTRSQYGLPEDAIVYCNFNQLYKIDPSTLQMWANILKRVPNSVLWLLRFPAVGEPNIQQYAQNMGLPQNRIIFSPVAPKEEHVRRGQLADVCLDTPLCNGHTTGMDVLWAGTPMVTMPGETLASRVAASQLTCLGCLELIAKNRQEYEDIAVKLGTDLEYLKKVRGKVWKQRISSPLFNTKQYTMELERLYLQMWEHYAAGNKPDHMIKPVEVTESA

Compound: Cc1cc(ccc1-c1ccccc1)C(=O)N1CCCN(CC1)C(=O)CCl [compound 10]
Assay: probe-labelled cysteine peptide fold change vs DMSO (competition) (log2 fold change); higher = less target engagement (more negative = stronger competition)
Conditions: THP-1, incubation time: 4 h
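Also: competitive profiling in live THP-1 cells: cysteine peptides tagged with an iodoacetamide desthiobiotin (IA-DTB) probe, intensity after compound treatment relative to DMSO-treated cells.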

Row | Target | probe-labelled cysteine peptide fold change (10 µM) | probe-labelled cysteine peptide fold change (50 µM)
1 | NUDT19_A8MXV4_220_RFDTAFFLCCLR (UniProt A8MXV4) | -0.131 | -0.0305
2 | NUDT8_Q8WV74_39_ARPASAAVLVPLCSVR (UniProt Q8WV74) | 0.0823 | 0.138
3 | NUP93_Q8N1F7_569_CVSELVIESR (UniProt Q8N1F7) | 0.398 | 0.725
4 | OGFOD1_Q8N543_308_VCEALEHGHVEWSSR (UniProt Q8N543) | 0.0306 | 0.155
5 | NUP160_Q12769_318_EQMCLMVADMLEYVPVKK (UniProt Q12769) | 0.242 | 0.224
6 | NUP85_Q9BW27_112_ACMEEMHQVAIAAK (UniProt Q9BW27) | 0.143 | 0.0463
7 | NUP133_Q8WUM0_641_LLLCEHAEK (UniProt Q8WUM0) | -0.158 | -0.252
8 | NUP155_O75694_551_LHQEDQACATCLILACSTAACDR (UniProt O75694) | 0.173 | -0.0226
9 | NUDT21_O43809_144_QDGVLQDWVIDDCIGNWWR (UniProt O43809) | 0.404 | 0.914
10 | NUMA1_Q14980_2009_ATSCFPR (UniProt Q14980) | -0.121 | -0.187
11 | NUP210_Q8TEM1_605_LPPGSEHCSGIR (UniProt Q8TEM1) | 0.0329 | 0.166
12 | OGFOD3_Q6PK18_103_RFEGCTPR (UniProt Q6PK18) | -0.088 | 0.067
13 | NUMA1_Q14980_160_APVPSTCSSTFPEELSPPSHQAK (UniProt Q14980) | -0.186 | -0.219
14 | NVL_O15381_626_ALGLVTPAGVLLAGPPGCGK (UniProt O15381) | 0.356 | 0.23
15 | NVL_O15381_785_CDCYTGADLSALVR (UniProt O15381) | -0.127 | -0.0558
16 | NUP98_P52948_1347_ISEACSLAQQSGDHR (UniProt P52948) | 0.0785 | 0.228
17 | NUP160_Q12769_931_ALECFCQAASEVGKEEFLDR (UniProt Q12769) | 0.0971 | 0.0576
18 | NUDC_Q9Y266_188_WTQTLSELDLAVPFCVNFR (UniProt Q9Y266) | -0.0295 | 0.0825
19 | NUP160_Q12769_480_ALQIFCR (UniProt Q12769) | 0.0415 | -0.0431
20 | NUP214_P35658_298_HPEIFVNFMEPCYGSCTER (UniProt P35658) | 0.163 | 0.251

Row | Target | probe-labelled cysteine peptide fold change (10 µM) | probe-labelled cysteine peptide fold change (50 µM)
21 | NUP43_Q8NFH3_222_QQGNEPSQILSLTGDRVPLHCVDRHPNQQHVVATGGQDGMLSIWDVR (UniProt Q8NFH3) | -0.0632 | -0.223
22 | NUP153_P49790_753_CVACETPKPGTCVK (UniProt P49790) | -0.14 | -1.02
23 | NUDT2_P50583_143_AALQEGHQFLCSIEA (UniProt P50583) | 0.05 | 0.0308
24 | NUP98_P52948_1312_WLSCTATPQIEEEVSLTQK (UniProt P52948) | -0.0219 | -0.737
25 | NUP153_P49790_731_FKPVIGTWDCDTCLVQNKPEAIK (UniProt P49790) | 0.119 | -0.0571
26 | OBSL1_O75147_412_LKADDDGIYLCEMR (UniProt O75147) | 0.107 | 0.00258
27 | OAS2_P29728_361_CFLEQIDSAVNIIR (UniProt P29728) | -0.201 | 0.0545
28 | NUP155_O75694_548+551_LHQEDQACATCLILACSTAACDR (UniProt O75694) | 0.123 | -0.0807
29 | ODC1_P11926_114_IIYANPCK (UniProt P11926) | -0.0815 | -0.145
30 | NUP58_Q9BVL2_252_ALKDENLPPVICQDVENLQK (UniProt Q9BVL2) | -0.348 | -0.312
31 | NUDT12_Q9BQG2_177_LCQLNYTDIK (UniProt Q9BQG2) | 0.0693 | -0.0214
32 | NXF1_Q9UBU9_252_SCMAATLR (UniProt Q9UBU9) | -0.058 | -0.0281
33 | OGT_O15294_620_VMAEANHFIDLSQIPCNGK (UniProt O15294) | -0.221 | -0.934
34 | NUP133_Q8WUM0_530_AAFLQYCR (UniProt Q8WUM0) | 0.0364 | -0.0191
35 | OCRL_Q01968_679_DYFLTISGNYLPSCFGTSLEALCR (UniProt Q01968) | 0.343 | 0.571
36 | NUDCD1_Q96RS6_376_DSAQCAAIAER (UniProt Q96RS6) | -0.311 | -0.677
37 | NXF1_Q9UBU9_588_CLQDNNWDYTR (UniProt Q9UBU9) | 0.252 | 0.41
38 | NUP85_Q9BW27_265_WQHWHEECER (UniProt Q9BW27) | 0.259 | 0.384
39 | NUMA1_Q14980_803_ELAEAMAAQHTAESECEQLVK (UniProt Q14980) | 0.212 | 0.247

From no. 33 up to 34, as listed above:
Row | Target | probe-labelled cysteine peptide fold change (10 µM) | probe-labelled cysteine peptide fold change (50 µM)
33 | OGT_O15294_620_VMAEANHFIDLSQIPCNGK (UniProt O15294) | -0.221 | -0.934
34 | NUP133_Q8WUM0_530_AAFLQYCR (UniProt Q8WUM0) | 0.0364 | -0.0191
